Data published in the supplement of paper PMC12067093, “Discovery and optimisation of a covalent ligand for TRIM25 and its application to targeted protein ubiquitination” (Chemical Science, 2025).
The other results are listed elsewhere or left out.

Protein sequences, listed by entry. Tags and fused reporters are not part of them. Lines headed by an entry give the natural chain unless they say otherwise; changes in a name come on top.
UniProt P29590: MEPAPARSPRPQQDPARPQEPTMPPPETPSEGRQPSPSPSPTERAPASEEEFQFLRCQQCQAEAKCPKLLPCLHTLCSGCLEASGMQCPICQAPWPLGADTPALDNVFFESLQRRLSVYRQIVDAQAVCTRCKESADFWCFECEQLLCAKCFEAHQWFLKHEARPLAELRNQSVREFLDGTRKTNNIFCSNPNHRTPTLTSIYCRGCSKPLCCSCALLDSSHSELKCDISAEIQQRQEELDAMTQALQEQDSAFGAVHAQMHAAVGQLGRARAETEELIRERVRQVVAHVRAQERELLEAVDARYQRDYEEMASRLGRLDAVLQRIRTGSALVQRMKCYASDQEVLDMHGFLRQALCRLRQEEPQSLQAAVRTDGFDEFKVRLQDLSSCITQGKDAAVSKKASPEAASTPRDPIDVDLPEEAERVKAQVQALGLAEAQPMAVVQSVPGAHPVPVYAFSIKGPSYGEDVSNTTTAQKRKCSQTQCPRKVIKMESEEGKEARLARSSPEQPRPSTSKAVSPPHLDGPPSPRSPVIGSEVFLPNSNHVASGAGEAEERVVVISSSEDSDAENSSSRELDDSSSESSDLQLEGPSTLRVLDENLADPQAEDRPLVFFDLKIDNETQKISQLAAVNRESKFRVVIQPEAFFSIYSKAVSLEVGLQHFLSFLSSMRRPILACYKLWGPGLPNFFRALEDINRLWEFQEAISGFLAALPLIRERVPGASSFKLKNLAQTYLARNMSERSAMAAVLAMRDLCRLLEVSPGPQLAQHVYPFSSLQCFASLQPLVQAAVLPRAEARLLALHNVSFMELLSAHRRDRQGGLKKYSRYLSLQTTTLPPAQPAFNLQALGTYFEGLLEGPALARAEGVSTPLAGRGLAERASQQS
UniProt Q9Y4D7: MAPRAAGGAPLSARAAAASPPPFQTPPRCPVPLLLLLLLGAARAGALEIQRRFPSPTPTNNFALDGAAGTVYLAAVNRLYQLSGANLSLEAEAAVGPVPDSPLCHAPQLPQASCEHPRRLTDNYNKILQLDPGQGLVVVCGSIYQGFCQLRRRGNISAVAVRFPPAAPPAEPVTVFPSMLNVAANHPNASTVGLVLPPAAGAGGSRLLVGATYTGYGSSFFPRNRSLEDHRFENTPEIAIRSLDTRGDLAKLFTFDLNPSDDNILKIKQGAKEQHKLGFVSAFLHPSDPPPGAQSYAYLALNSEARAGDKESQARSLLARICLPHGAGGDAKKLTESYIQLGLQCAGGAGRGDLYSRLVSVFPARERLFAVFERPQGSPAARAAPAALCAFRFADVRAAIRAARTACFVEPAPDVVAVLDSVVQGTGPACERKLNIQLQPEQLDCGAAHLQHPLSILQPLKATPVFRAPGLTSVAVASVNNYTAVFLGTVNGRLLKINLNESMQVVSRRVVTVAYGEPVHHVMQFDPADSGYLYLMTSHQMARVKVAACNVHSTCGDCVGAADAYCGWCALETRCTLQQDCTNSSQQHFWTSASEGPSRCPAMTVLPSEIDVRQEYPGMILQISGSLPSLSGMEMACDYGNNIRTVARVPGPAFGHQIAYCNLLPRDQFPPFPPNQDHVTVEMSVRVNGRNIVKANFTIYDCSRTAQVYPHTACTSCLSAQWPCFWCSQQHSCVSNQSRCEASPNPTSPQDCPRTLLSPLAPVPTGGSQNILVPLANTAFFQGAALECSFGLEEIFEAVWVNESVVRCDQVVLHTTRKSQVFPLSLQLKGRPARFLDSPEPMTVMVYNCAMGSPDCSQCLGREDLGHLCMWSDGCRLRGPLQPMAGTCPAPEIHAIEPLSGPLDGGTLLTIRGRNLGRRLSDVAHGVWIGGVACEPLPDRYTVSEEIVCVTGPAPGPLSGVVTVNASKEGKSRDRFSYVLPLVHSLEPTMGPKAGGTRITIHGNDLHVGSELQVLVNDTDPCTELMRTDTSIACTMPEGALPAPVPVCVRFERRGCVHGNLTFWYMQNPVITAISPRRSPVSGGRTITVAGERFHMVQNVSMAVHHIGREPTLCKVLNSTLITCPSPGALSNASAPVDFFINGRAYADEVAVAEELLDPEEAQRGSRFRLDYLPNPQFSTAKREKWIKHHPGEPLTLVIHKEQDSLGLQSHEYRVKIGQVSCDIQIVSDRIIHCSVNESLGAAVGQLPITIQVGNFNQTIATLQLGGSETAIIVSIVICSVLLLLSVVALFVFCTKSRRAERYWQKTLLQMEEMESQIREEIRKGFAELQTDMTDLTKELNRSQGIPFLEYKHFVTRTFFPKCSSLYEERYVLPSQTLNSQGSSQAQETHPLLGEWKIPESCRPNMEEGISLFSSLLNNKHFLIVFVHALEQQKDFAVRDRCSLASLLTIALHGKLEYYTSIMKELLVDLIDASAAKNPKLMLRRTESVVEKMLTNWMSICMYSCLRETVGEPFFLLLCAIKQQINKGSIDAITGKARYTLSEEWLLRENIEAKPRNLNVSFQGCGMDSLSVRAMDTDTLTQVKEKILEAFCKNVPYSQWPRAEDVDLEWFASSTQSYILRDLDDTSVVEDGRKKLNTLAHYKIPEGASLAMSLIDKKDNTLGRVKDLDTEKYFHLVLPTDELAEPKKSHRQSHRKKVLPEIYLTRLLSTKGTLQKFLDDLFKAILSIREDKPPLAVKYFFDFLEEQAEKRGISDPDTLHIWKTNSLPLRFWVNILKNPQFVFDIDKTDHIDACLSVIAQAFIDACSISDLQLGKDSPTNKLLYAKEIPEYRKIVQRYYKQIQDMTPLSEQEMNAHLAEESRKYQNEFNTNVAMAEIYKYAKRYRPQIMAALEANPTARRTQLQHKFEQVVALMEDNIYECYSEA
UniProt Q10713: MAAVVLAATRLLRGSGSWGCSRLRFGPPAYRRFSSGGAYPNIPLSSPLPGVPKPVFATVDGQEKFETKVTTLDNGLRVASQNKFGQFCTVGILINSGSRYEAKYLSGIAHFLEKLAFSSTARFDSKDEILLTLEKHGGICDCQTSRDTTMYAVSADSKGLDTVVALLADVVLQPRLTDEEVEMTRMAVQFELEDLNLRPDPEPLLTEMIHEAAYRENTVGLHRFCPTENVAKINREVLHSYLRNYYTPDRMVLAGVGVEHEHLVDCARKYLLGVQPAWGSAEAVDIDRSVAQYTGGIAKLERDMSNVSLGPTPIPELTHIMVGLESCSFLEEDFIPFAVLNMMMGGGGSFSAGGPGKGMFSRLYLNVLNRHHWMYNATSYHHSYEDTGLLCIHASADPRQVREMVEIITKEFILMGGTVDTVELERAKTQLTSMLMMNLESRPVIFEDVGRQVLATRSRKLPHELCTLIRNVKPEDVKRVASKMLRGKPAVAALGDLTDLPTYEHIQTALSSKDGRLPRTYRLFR
UniProt Q9NVS9: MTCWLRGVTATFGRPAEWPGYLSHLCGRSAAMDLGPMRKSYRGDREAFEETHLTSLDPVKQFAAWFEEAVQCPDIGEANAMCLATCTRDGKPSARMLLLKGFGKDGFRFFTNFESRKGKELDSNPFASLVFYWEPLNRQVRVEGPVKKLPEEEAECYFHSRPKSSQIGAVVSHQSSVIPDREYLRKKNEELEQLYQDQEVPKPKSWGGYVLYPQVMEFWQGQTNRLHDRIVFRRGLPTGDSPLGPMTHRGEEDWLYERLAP
UniProt O00459, whole entry, looked up: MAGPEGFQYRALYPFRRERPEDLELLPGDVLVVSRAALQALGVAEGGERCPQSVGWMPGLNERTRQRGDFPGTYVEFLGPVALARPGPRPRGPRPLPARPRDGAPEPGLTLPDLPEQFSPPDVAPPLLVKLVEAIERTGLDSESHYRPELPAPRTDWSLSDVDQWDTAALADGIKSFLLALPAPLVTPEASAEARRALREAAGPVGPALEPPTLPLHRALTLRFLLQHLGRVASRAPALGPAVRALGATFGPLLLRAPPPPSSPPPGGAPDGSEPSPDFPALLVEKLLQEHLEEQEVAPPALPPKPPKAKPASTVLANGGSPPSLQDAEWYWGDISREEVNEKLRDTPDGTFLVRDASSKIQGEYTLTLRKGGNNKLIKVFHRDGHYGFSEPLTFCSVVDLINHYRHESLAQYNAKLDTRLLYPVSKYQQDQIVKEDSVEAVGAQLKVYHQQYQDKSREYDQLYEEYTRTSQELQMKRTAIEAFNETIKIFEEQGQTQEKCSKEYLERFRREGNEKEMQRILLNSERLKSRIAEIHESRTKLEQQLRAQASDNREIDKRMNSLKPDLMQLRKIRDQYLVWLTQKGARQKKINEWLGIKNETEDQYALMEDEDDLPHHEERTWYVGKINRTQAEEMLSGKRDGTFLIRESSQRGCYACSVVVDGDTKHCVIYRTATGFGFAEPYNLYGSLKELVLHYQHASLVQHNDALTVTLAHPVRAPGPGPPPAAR
UniProt O00329: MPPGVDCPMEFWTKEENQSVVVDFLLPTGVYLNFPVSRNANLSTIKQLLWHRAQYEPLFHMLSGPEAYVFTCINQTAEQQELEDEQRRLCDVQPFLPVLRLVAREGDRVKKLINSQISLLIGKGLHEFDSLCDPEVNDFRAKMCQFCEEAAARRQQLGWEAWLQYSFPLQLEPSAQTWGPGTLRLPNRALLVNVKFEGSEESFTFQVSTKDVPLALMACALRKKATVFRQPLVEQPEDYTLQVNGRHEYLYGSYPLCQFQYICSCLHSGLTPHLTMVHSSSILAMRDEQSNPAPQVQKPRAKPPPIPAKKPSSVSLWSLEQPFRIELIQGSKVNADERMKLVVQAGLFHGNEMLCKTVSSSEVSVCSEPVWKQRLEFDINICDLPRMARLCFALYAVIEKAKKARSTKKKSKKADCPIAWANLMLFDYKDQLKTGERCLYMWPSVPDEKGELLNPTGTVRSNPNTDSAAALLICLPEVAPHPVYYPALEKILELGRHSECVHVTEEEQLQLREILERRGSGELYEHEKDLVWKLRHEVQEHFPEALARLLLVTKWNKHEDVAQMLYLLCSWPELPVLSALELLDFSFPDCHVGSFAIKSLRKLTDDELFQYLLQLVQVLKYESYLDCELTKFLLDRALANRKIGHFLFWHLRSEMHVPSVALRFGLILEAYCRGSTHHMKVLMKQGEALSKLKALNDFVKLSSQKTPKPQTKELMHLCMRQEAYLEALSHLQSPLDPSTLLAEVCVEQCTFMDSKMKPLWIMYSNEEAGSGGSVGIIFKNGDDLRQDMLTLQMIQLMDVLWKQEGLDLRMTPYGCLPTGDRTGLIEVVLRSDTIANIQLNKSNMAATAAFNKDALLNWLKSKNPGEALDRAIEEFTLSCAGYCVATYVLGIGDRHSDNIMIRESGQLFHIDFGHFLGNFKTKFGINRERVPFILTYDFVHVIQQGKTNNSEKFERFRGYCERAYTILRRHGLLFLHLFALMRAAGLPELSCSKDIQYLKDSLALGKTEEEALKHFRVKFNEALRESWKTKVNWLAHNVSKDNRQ
UniProt Q9UPR0: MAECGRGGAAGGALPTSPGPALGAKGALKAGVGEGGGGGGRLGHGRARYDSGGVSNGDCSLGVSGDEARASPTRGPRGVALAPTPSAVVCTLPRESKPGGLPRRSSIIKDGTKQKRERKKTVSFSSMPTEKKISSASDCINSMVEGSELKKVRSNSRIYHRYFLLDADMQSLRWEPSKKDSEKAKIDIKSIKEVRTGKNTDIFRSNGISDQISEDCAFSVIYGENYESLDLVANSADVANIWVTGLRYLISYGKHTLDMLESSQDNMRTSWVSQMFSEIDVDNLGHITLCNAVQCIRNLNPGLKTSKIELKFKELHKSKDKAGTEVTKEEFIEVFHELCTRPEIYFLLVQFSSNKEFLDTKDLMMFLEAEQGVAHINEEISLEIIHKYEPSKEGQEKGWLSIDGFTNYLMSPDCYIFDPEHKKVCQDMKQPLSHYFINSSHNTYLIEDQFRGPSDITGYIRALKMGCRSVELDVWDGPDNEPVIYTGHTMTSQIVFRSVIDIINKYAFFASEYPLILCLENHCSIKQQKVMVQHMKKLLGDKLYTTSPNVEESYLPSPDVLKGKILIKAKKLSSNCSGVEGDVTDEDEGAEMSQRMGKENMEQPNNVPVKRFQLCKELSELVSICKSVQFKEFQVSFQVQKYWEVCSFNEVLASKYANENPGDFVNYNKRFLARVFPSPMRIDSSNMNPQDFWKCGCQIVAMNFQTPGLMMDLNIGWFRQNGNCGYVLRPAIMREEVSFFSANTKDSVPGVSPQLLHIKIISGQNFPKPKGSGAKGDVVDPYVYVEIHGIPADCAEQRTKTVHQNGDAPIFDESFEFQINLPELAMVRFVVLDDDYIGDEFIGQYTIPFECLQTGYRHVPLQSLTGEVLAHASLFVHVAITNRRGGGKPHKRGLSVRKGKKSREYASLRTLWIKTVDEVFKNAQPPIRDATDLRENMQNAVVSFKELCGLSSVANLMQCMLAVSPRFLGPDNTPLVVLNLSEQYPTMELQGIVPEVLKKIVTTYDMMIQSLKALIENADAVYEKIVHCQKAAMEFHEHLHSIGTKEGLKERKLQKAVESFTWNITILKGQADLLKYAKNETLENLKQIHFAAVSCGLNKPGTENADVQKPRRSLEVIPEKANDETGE

Compound: Cc1cc(ccc1-c1ccccc1)C(=O)N1CCCN(CC1)C(=O)CCl [compound 10]
Test: probe-labelled cysteine peptide fold change vs DMSO (competition) (log2 fold change); higher = less target engagement (more negative = stronger competition)
Settings: THP-1, incubation time: 4 h
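Also: competitive profiling in live THP-1 cells: cysteine peptides tagged with an iodoacetamide desthiobiotin (IA-DTB) probe, intensity after compound treatment relative to DMSO-treated cells.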

Target | probe-labelled cysteine peptide fold change (10 µM) | probe-labelled cysteine peptide fold change (50 µM)
PIK3R1_P27986_146_GLECSTLYR (UniProt P27986) | -0.0643 | 0.0863
PML_P29590_189_TNNIFCSNPNHR (UniProt P29590) | 0.0467 | 0.0847
PLXND1_Q9Y4D7_345_KLTESYIQLGLQCAGGAGR (UniProt Q9Y4D7) | -0.284 | -0.519
PLAA_Q9Y263_26_GLVCCAYPPGAFVSVSR (UniProt Q9Y263) | 0.0151 | -0.407
PLCG2_P16885_791_SDELSFCR (UniProt P16885) | -0.0321 | -0.0713
PMPCA_Q10713_225_FCPTENVAK (UniProt Q10713) | -0.0665 | -0.0517
PLK1_P53350_372_ETGEVVDCHLSDMLQQLHSVNASKPSER (UniProt P53350) | -0.0492 | -0.49
PLD3_Q8IV08_487_SQLEAIFLRDWDSPYSHDLDTSADSVGNACR (UniProt Q8IV08) | -0.352 | -0.521
PNPO_Q9NVS9_156_LPEEEAECYFHSRPK (UniProt Q9NVS9) | -0.184 | -0.375
PNKP_Q96T60_445_AAGVPCR (UniProt Q96T60) | -0.0274 | -0.232
PLXNC1_O60486_1217_IPENESADVCR (UniProt O60486) | 0.0771 | 0.162
PMS2_P54278_591_EEILSSSDICQK (UniProt P54278) | -0.109 | -0.181
PIK3R2_O00459_50_CPQSVGWMPGLNER (UniProt O00459) | -0.0764 | -0.249
PIK3CD_O00329_90_LCDVQPFLPVLR (UniProt O00329) | -0.171 | -0.318
PLCL2_Q9UPR0_794_GDVVDPYVYVEIHGIPADCAEQR (UniProt Q9UPR0) | -0.457 | -0.334

No new results follow: entries from further up.
Target | probe-labelled cysteine peptide fold change (10 µM) | probe-labelled cysteine peptide fold change (50 µM)
PIK3CD_O00329_90_LCDVQPFLPVLR (UniProt O00329) | -0.171 | -0.318
PLCL2_Q9UPR0_794_GDVVDPYVYVEIHGIPADCAEQR (UniProt Q9UPR0) | -0.457 | -0.334
